Here are results for 28 targets from the supplement of paper PMC10849652.

Amino acid sequences for entries named in this document (tags omitted). A change or cut given only in a name is not applied to a line headed by its entry.
UniProt O60333: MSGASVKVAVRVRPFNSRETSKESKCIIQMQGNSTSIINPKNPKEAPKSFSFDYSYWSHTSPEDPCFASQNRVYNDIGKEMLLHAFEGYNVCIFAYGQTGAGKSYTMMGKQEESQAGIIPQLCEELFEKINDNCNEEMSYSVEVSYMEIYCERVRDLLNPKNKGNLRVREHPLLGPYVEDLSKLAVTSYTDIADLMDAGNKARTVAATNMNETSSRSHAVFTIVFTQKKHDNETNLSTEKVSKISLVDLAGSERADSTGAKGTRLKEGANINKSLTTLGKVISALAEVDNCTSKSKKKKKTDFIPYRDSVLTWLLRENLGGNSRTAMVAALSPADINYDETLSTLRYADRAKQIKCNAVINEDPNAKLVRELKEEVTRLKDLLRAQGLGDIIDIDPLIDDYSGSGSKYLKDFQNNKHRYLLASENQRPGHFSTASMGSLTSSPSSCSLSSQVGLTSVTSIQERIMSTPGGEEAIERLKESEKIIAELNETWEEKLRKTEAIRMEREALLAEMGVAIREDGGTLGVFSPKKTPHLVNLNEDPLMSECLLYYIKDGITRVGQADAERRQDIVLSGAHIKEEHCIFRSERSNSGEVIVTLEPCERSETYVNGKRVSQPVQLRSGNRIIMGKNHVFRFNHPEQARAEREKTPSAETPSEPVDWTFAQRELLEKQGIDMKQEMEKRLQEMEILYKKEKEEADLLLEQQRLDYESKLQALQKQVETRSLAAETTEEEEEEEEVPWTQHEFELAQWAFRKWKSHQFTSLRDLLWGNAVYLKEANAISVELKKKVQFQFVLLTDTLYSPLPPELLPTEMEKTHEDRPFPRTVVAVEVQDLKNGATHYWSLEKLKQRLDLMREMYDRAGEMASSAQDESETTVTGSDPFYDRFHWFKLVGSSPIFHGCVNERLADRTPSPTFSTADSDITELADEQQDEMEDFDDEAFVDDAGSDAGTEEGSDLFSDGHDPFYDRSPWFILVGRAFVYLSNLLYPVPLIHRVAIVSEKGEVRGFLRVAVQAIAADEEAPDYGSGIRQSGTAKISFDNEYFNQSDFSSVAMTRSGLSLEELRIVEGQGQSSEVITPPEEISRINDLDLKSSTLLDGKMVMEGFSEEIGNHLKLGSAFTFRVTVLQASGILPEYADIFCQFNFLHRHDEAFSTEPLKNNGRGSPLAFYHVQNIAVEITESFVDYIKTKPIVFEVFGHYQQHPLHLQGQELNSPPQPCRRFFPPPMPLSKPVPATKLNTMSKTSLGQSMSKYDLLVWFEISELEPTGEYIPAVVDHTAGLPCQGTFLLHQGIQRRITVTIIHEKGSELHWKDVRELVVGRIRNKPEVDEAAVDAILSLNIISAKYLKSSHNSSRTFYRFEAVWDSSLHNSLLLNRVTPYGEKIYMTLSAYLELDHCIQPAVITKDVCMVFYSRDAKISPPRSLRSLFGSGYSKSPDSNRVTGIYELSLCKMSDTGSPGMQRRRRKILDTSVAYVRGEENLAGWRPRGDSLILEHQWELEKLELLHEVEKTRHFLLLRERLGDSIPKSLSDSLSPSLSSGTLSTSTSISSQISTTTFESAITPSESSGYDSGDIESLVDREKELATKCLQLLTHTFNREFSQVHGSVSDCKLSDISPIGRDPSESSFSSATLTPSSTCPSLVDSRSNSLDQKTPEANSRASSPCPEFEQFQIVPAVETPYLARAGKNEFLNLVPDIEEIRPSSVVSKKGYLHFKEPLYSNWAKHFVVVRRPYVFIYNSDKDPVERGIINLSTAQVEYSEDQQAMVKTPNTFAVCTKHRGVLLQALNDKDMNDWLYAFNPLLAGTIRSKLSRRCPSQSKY
UniProt Q02241: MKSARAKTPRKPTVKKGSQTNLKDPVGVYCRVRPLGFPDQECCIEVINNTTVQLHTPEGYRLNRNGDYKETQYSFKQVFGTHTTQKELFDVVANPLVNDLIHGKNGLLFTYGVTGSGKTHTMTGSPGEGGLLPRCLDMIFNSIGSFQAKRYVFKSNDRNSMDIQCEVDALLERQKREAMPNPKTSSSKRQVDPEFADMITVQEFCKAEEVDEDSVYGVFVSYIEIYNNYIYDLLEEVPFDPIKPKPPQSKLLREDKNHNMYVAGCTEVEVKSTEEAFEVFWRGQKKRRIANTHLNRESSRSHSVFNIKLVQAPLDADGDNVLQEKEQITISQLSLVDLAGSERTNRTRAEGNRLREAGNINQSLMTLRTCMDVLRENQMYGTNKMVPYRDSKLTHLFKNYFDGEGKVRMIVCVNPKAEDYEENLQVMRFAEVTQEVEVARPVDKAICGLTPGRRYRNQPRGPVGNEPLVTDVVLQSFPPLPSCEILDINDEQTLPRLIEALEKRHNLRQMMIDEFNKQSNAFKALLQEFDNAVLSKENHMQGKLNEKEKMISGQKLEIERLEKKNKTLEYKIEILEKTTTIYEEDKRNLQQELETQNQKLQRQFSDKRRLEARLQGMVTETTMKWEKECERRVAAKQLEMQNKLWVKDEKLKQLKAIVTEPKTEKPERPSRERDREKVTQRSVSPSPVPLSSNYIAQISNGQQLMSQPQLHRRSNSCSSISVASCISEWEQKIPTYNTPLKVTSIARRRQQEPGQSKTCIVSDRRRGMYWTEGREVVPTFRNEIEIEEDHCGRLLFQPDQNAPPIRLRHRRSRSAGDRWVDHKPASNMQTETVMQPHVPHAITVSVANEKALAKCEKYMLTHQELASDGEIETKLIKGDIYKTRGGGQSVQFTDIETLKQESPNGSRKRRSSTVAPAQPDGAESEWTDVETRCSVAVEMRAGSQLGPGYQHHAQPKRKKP
UniProt Q9UK76: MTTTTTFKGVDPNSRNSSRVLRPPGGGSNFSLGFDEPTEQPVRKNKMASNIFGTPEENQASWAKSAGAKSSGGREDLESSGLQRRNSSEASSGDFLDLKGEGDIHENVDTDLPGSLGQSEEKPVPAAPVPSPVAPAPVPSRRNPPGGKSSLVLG
UniProt Q8N5M9: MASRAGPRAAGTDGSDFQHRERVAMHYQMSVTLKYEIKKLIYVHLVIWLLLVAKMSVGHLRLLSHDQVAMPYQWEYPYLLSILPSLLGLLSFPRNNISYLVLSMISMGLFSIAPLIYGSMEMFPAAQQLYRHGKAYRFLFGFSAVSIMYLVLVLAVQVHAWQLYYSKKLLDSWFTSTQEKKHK
UniProt Q96EK5: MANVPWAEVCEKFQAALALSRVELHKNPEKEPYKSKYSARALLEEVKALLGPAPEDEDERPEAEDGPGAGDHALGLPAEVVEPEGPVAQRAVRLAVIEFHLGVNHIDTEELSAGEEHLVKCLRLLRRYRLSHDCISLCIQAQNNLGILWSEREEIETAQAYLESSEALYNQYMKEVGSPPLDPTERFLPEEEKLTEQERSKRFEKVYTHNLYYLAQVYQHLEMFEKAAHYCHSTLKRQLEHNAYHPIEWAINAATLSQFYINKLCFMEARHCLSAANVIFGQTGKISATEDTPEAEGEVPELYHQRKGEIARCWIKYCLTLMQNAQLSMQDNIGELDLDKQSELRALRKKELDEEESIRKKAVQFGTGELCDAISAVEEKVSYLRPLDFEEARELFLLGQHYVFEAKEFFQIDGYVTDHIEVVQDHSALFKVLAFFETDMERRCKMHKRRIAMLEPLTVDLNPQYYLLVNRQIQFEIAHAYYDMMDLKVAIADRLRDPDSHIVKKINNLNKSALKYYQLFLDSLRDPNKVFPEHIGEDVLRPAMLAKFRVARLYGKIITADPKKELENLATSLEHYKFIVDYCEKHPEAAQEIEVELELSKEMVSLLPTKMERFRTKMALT
UniProt Q7LBC6: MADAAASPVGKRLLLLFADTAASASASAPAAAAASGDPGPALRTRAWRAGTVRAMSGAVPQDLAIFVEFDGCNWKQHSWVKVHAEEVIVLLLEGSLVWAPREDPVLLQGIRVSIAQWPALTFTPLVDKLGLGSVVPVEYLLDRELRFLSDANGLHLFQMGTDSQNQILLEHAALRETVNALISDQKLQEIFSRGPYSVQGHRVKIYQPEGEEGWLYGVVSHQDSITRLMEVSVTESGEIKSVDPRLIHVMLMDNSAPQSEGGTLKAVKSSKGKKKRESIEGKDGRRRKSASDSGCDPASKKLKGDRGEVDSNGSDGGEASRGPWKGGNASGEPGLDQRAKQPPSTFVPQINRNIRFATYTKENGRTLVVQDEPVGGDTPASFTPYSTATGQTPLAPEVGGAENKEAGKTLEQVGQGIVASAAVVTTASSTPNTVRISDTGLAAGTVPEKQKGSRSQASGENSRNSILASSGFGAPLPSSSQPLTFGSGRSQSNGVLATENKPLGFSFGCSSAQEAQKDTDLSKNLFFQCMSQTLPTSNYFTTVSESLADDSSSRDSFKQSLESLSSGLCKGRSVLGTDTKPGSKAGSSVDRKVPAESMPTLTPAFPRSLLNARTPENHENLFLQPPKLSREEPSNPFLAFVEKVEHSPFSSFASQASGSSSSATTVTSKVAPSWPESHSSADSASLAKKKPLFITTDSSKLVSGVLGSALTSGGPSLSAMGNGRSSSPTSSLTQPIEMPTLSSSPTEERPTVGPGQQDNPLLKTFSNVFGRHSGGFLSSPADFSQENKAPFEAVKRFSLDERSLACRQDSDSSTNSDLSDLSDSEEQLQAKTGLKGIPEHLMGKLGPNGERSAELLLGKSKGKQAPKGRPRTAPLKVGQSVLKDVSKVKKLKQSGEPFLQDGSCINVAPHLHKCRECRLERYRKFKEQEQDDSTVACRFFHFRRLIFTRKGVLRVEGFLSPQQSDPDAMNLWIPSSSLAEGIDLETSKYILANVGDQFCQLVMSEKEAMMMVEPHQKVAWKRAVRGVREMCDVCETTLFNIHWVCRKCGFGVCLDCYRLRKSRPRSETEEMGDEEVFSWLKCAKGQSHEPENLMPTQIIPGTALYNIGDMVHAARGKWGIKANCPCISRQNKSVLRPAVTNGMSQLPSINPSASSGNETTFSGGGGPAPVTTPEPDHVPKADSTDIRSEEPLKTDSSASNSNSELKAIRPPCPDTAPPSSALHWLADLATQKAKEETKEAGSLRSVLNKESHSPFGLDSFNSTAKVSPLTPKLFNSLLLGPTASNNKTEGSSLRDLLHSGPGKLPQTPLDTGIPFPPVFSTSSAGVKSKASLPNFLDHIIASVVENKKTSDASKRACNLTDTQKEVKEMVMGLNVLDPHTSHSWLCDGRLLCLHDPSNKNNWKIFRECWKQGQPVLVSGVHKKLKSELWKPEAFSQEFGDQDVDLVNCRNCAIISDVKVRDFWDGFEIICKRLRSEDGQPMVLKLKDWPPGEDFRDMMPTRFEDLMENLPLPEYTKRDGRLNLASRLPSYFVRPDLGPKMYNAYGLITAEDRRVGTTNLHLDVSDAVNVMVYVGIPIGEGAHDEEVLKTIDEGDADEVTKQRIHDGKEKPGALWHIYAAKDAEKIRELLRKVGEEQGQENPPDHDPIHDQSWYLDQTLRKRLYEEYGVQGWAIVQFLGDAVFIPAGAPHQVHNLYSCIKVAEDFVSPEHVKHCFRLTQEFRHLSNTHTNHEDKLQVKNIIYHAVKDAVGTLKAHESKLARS
UniProt Q9P0J7: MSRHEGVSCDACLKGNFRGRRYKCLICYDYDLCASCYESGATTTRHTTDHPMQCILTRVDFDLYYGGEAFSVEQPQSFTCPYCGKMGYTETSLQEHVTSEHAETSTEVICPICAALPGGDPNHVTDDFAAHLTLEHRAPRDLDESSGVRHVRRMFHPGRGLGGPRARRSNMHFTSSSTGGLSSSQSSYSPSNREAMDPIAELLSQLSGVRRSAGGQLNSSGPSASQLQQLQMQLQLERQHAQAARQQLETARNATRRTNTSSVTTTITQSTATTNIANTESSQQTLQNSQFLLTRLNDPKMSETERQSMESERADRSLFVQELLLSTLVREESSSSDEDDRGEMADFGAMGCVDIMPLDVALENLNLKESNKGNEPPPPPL
UniProt Q15046, whole entry, looked up: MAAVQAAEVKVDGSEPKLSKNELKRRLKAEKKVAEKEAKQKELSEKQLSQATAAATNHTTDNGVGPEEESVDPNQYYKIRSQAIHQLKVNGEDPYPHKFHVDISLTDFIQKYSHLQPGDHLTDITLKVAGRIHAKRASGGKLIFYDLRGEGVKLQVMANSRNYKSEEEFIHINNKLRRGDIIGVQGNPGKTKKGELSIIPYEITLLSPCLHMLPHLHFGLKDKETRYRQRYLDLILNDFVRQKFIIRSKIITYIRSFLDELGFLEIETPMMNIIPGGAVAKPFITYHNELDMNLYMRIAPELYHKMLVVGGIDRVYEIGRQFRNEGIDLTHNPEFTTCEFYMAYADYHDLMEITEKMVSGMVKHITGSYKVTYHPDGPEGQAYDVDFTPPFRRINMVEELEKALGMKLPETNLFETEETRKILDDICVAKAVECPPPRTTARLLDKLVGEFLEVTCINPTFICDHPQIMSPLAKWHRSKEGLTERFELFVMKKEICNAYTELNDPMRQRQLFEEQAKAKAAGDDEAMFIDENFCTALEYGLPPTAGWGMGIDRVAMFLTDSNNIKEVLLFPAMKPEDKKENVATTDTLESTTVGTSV

The list shows a part of the results.

Compound in the first experiment: CC1=C(SC2=C1C(=N[C@H](C3=NN=C(N32)C)CC(=O)N)C4=CC=C(C=C4)Cl)C
The experiment in a line: log2 fold change, soluble protein after heating vs DMSO (PISA); higher = thermal stabilisation; K562 cells, 10 uM, 30 min; active = over 0.2 and 3.5 SD of the protein, either way, in both replicates (recomputed). The procedure, abridged: (§1)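 K562 cells (2×10^6 cells/mL) were treated with 10 μM compound for 30 min, and aliquots were heated for 3 min over 48°C-58°C. Pooled aliquots were extracted in PBS with 0.5% NP-40 at 4°C, and the supernatant after 21,000xg for 90 min was measured by TMTpro 16plex LC-MS/MS with channel sums equalised. Reported thermal stability, relative to control samples and from duplicates, is a log2 fold change.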
Regarding KIF1B isoform 4 (UniProt O60333), the log2 fold change is inactive: 0.027.
Same read-out and setting: next, KATNA1 (UniProt O75449): inactive: -0.011; KRTCAP2 isoform 2 (UniProt Q8N6L1): inactive: 0.004.
Regarding KEAP1 (UniProt Q14145), the log2 fold change was inactive: -0.001.
For KDM1A isoform 2 (UniProt O60341), the log2 fold change is inactive: 0.
Consider KIF5A (UniProt Q12840), for which the log2 fold change is inactive: 0.001.
Take KIF23 (UniProt Q02241): the log2 fold change is inactive: 0.107.
Regarding KPNB1 (UniProt Q14974), the log2 fold change is inactive: -0.018.
Take KIAA1143 (UniProt Q96AT1): the log2 fold change was inactive: 0.
Still for that read-out and setting: next, KIAA1755 (UniProt Q5JYT7): inactive: -0.017; JPT1 (UniProt Q9UK76): inactive: 0.055; ITPRIP (UniProt Q8IWB1): inactive: 0.096.
Turning to KLHDC3 (UniProt Q9BQ90), the log2 fold change was inactive: 0.133.
As for KIAA2013 isoform 2 (UniProt Q8IYS2), the log2 fold change was inactive: -0.026.
For KNSTRN (UniProt Q9Y448), the log2 fold change was inactive: -0.061.
Regarding JAGN1 (UniProt Q8N5M9), the log2 fold change was inactive: 0.135.
With KCNAB2 (UniProt Q13303), the log2 fold change is inactive: 0.057.
On the same count and under the same terms, next, KATNAL1 (UniProt Q9BW62): inactive: -0.214; KATNB1 (UniProt Q9BVA0): inactive: 0.018.
On to KIFBP (UniProt Q96EK5), for which the log2 fold change is inactive: 0.025.
On to KIF5B (UniProt P33176), for which the log2 fold change is inactive: 0.06.
In the case of KIAA1191 (UniProt Q96A73), the log2 fold change is inactive: 0.069.
Consider KNTC1 (UniProt P50748), for which the log2 fold change is inactive: 0.011.
Consider KDM3B (UniProt Q7LBC6), for which the log2 fold change is inactive: 0.026.
KPTN (UniProt Q9Y664): the log2 fold change was inactive: 0.135.
As to KCMF1 (UniProt Q9P0J7), the log2 fold change was inactive: -0.049.
Consider KIF15 (UniProt Q9NS87), for which the log2 fold change was inactive: -0.155.
On the same count and under the same terms, next, KARS1 (UniProt Q15046): inactive: -0.128.

Compound in another experiment: CC1=C2C(=CC=C1)N=C(N(C2=O)C3=CC=CC=C3C)CN4C=NC5=C(N=CN=C54)N
The description is as above. The procedure, abridged:
as §1
For the target KIF1B isoform 4 (UniProt O60333), the log2 fold change was inactive: 0.042.
KATNA1 (UniProt O75449): the log2 fold change is inactive: 0.018.
For the target KRTCAP2 isoform 2 (UniProt Q8N6L1), the log2 fold change was inactive: -0.092.
Consider KEAP1 (UniProt Q14145), for which the log2 fold change is inactive: 0.007.
As to KDM1A isoform 2 (UniProt O60341), the log2 fold change is inactive: 0.087.
For KIF5A (UniProt Q12840), the log2 fold change is inactive: -0.007.
Regarding KIF23 (UniProt Q02241), the log2 fold change is inactive: 0.048.
With KPNB1 (UniProt Q14974), the log2 fold change is inactive: -0.024.
The same measure, in the same setting: next, KIAA1143 (UniProt Q96AT1): inactive: 0.016; KIAA1755 (UniProt Q5JYT7): inactive: -0.011; JPT1 (UniProt Q9UK76): inactive: 0.008.
As for ITPRIP (UniProt Q8IWB1), the log2 fold change was inactive: 0.054.
Take KLHDC3 (UniProt Q9BQ90): the log2 fold change is inactive: -0.066.
For the target KIAA2013 isoform 2 (UniProt Q8IYS2), the log2 fold change was inactive: 0.065.
The same measure, in the same setting: next, KNSTRN (UniProt Q9Y448): inactive: -0.017; JAGN1 (UniProt Q8N5M9): inactive: -0.018; KCNAB2 (UniProt Q13303): inactive: -0.025.
In the case of KATNAL1 (UniProt Q9BW62), the log2 fold change was inactive: 0.035.
For the target KATNB1 (UniProt Q9BVA0), the log2 fold change is inactive: 0.025.
Take KIFBP (UniProt Q96EK5): the log2 fold change is inactive: 0.06.
For the target KIF5B (UniProt P33176), the log2 fold change is inactive: 0.039.
Take KIAA1191 (UniProt Q96A73): the log2 fold change was inactive: -0.002.
Still for that read-out and setting: next, KNTC1 (UniProt P50748): inactive: 0.106; KDM3B (UniProt Q7LBC6): inactive: 0.08.
Still for that read-out and setting: next, KPTN (UniProt Q9Y664): inactive: 0.035.
As for KCMF1 (UniProt Q9P0J7), the log2 fold change is inactive: -0.069.
As for KIF15 (UniProt Q9NS87), the log2 fold change is inactive: -0.122.
On to KARS1 (UniProt Q15046), for which the log2 fold change is inactive: -0.092.
